Some of the results follow.
Assays:
Experiment in all cases: log2 fold change, soluble protein after heating vs DMSO (PISA); higher = thermal stabilisation; K562 cells, 10 uM, 30 min; active = over 0.2 and 3.5 SD of the protein, either way, in both replicates (recomputed)
[1] = compound: COC1=CC=C(C=C1)CN2C=CC3=C2C=C(C=C3)C(=O)NO
Outline: (§1)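 K562 cells at 2×10^6 cells/mL were given 10 μM compound for 30 min. Aliquots then went through 3 min of heating across 48°C-58°C, were pooled, and were extracted in PBS with 0.5% NP-40 at 4°C, and the supernatant after 21,000xg for 90 min was quantified by TMTpro 16plex LC-MS/MS with channel sums equalised. Thermal stability relative to control samples, from duplicates, is given as log2 fold change.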

Protein sequences, listed by entry. Tags and fused reporters are not part of them. Lines headed by an entry give the natural chain unless they say otherwise; changes in a name come on top.
UniProt Q14004, whole entry, looked up: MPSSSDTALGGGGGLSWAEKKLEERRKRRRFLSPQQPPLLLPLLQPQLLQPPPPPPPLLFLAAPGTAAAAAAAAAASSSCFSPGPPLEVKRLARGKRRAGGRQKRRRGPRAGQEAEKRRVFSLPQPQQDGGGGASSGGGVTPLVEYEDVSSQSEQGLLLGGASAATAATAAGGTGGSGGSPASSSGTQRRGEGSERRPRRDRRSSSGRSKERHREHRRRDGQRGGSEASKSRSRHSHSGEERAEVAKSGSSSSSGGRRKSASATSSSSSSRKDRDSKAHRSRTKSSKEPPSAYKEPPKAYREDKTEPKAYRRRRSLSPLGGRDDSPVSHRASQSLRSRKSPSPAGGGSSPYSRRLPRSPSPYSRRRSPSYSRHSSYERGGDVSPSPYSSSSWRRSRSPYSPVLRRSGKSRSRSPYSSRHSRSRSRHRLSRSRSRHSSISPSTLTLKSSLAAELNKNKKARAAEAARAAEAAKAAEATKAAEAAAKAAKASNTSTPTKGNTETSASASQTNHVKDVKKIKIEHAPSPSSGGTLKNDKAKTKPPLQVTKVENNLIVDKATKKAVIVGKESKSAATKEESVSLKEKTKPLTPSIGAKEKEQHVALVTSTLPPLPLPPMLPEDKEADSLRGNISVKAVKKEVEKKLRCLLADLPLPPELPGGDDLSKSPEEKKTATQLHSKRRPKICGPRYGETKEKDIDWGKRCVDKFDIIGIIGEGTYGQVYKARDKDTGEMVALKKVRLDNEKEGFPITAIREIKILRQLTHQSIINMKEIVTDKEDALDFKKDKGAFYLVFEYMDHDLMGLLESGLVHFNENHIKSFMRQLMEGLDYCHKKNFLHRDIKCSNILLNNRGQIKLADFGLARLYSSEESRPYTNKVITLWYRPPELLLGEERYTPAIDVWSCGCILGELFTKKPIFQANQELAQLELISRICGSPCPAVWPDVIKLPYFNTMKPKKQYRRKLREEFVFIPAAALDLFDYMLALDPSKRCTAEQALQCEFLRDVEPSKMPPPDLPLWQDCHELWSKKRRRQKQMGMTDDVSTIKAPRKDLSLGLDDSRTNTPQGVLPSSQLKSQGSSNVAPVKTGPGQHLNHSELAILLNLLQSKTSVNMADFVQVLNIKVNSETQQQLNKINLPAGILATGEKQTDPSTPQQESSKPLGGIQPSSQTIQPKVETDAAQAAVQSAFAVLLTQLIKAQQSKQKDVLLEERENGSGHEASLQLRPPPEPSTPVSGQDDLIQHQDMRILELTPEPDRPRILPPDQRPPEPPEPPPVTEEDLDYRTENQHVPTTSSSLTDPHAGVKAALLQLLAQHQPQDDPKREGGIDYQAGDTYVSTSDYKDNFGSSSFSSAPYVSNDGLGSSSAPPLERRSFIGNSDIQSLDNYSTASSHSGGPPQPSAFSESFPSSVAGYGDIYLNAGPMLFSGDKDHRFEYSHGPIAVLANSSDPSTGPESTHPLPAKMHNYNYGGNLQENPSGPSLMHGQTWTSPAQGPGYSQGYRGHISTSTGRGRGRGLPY
UniProt Q00587: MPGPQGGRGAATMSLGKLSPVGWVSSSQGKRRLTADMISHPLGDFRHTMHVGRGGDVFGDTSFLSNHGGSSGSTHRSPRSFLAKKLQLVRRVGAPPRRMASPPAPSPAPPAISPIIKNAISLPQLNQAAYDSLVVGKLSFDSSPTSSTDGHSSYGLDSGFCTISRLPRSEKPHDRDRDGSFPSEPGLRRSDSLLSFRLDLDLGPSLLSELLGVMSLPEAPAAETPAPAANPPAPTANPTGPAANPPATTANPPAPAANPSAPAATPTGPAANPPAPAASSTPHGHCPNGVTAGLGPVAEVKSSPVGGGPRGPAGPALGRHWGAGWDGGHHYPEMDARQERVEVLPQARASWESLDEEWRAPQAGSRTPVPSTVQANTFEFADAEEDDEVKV
UniProt Q9NYV4, whole entry, looked up: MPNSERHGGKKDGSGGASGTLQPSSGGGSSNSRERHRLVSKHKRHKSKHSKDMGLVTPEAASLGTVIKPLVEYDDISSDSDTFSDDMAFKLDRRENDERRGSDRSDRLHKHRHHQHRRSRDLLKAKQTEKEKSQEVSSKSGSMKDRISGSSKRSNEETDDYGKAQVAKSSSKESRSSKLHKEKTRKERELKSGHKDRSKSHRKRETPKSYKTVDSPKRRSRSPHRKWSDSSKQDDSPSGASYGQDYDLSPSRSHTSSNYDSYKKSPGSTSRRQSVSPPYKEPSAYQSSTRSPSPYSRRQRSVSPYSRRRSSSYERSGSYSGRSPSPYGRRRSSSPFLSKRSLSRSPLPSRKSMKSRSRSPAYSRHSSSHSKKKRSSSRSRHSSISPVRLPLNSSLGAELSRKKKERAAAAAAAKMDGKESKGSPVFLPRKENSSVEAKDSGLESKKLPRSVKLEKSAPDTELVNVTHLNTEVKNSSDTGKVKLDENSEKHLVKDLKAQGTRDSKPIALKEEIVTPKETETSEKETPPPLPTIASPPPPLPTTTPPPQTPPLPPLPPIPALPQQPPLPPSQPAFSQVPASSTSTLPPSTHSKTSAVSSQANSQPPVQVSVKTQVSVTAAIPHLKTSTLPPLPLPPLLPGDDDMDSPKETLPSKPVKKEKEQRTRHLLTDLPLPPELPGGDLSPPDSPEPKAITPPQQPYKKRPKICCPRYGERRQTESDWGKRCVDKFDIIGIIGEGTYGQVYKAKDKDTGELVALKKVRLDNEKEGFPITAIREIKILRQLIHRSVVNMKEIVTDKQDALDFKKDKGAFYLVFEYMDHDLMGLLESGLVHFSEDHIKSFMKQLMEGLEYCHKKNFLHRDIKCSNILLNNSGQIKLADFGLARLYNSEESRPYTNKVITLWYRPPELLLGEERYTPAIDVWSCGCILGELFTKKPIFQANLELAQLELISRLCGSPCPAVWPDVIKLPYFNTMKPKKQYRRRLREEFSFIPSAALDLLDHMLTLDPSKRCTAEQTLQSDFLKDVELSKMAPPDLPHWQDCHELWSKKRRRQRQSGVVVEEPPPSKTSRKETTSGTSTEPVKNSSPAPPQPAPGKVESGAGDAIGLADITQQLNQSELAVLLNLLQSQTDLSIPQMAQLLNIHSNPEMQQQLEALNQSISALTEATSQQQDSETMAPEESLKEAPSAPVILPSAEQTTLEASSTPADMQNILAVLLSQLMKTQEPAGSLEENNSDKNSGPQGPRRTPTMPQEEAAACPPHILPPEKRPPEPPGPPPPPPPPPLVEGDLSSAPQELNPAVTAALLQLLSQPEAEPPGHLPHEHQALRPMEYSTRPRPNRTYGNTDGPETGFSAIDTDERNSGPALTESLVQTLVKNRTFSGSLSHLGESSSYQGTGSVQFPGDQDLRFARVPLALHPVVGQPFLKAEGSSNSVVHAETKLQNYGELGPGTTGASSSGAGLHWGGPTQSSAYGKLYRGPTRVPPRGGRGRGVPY
UniProt Q00535, whole entry, looked up: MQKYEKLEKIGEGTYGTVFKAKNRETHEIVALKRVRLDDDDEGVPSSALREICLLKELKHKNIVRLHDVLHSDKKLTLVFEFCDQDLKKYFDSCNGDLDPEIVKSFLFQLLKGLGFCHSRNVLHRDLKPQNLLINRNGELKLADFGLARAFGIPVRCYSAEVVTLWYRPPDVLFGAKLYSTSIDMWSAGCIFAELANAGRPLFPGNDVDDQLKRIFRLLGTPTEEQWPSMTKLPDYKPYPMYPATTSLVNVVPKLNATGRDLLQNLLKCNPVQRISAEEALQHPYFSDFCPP
UniProt O96017, whole entry, looked up: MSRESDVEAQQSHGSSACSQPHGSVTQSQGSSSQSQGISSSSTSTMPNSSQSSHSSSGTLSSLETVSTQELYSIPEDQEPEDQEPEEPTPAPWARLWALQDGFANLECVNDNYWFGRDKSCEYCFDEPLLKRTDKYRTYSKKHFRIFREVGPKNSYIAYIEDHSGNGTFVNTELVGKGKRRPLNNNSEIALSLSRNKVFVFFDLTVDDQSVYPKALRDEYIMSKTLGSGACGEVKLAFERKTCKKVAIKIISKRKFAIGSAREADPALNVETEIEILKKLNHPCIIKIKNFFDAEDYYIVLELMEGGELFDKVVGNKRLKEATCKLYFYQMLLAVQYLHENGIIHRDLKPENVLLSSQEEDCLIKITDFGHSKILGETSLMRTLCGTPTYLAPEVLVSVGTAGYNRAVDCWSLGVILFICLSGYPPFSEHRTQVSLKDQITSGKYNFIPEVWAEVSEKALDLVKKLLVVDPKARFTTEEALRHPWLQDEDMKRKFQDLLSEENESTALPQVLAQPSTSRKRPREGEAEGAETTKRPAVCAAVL
UniProt Q9Y6K0: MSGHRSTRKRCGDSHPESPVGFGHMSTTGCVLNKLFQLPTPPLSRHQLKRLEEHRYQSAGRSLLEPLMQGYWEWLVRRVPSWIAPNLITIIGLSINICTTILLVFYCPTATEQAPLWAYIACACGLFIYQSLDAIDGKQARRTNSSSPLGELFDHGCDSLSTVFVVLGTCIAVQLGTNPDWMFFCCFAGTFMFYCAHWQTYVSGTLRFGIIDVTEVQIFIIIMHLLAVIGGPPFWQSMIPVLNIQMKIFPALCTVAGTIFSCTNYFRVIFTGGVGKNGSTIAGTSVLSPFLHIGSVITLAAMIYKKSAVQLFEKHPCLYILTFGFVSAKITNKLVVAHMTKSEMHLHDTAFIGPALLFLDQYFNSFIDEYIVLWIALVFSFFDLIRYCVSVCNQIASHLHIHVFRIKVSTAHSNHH
UniProt Q9NZZ3: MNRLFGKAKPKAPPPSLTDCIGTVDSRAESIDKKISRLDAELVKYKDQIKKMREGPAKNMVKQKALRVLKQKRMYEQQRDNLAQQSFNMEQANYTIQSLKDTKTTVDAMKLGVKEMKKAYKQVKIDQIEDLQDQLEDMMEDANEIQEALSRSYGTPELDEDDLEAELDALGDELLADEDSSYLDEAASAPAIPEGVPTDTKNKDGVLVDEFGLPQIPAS
UniProt Q5VT25: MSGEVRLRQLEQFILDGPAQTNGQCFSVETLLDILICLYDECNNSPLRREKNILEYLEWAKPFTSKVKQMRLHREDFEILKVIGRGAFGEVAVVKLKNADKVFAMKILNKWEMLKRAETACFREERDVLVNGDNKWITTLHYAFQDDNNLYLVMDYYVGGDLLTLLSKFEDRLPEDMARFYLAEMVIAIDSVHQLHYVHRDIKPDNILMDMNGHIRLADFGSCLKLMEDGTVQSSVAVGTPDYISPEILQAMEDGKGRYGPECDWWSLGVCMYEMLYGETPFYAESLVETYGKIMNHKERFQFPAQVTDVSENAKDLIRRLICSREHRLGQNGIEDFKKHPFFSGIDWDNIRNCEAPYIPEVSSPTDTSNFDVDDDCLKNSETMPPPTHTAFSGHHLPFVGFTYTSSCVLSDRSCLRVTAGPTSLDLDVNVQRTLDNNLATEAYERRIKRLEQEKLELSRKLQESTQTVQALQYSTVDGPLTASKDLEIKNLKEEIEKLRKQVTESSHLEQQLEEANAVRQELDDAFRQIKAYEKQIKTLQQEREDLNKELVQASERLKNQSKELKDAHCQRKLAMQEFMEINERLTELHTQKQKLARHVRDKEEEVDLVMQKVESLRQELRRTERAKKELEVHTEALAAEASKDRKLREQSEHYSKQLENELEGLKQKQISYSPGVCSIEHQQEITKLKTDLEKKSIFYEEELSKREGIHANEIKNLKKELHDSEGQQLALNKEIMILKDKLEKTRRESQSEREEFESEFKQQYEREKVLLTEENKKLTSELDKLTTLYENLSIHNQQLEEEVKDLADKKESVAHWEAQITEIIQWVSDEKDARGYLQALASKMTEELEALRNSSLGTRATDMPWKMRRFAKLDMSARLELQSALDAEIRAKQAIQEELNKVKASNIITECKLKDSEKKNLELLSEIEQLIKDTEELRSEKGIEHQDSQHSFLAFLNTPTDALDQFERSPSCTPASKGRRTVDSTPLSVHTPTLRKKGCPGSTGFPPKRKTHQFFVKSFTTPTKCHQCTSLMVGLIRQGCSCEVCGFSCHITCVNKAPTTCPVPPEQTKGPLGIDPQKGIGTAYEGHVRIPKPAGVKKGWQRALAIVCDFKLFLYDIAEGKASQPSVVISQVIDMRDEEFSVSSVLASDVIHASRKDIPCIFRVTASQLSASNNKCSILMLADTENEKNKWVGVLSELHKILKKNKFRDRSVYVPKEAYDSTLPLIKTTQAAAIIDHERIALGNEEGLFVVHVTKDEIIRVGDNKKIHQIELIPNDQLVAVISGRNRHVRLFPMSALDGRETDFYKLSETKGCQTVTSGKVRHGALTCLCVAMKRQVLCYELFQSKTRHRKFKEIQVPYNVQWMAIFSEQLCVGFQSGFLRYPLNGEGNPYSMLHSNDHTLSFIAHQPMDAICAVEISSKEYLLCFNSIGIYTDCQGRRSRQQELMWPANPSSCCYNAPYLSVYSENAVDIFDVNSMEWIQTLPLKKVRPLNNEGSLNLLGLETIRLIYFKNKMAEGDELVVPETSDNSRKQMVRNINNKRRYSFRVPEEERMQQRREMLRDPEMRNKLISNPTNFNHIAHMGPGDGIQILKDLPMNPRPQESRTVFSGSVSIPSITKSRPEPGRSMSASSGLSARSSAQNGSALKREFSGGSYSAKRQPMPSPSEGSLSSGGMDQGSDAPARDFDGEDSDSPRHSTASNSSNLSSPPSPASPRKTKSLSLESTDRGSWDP

filanesib = compound: CON(C)C(=O)N1N=C(c2cc(F)ccc2F)S[C@@]1(CCCN)c1ccccc1 [filanesib]
Outline: as §1

zotarolimus = compound: CO[C@H]1C[C@@H]2CC[C@@H](C)[C@@](O)(O2)C(=O)C(=O)N2CCCC[C@H]2C(=O)O[C@H]([C@H](C)C[C@@H]2CC[C@H](n3cnnn3)[C@H](OC)C2)CC(=O)[C@H](C)/C=C(\C)[C@@H](O)[C@@H](OC)C(=O)[C@H](C)C[C@H](C)/C=C/C=C/C=C/1C [zotarolimus]
Outline: as §1

idasanutlin = compound: COc1cc(C(=O)O)ccc1NC(=O)[C@@H]1N[C@@H](CC(C)(C)C)[C@](C#N)(c2ccc(Cl)cc2F)[C@H]1c1cccc(Cl)c1F [idasanutlin]
Outline: as §1

alisertib = compound: COc1cc(Nc2ncc3c(n2)-c2ccc(Cl)cc2C(c2c(F)cccc2OC)=NC3)ccc1C(=O)O [alisertib]
Outline: as §1

[2] = compound: COc1cc2nc(-c3cc(F)ccc3O)nc(N[C@@H]3CNC[C@H]3C(C)(C)O)c2cc1OC
Outline: as §1

gefitinib = compound: COc1cc2ncnc(Nc3ccc(F)c(Cl)c3)c2cc1OCCCN1CCOCC1 [gefitinib]
Outline: as §1

[3] = compound: COc1cccc2cc(-c3nc([C@H]4CC[C@H](C(=O)O)CC4)n4ncnc(N)c34)[nH]c12
Outline: as §1

lapatinib = compound: CS(=O)(=O)CCNCc1ccc(-c2ccc3ncnc(Nc4ccc(OCc5cccc(F)c5)c(Cl)c4)c3c2)o1 [lapatinib]
Outline: as §1

pictilisib = compound: CS(=O)(=O)N1CCN(Cc2cc3nc(-c4cccc5[nH]ncc45)nc(N4CCOCC4)c3s2)CC1 [pictilisib]
Outline: as §1

Measured: log2 fold change

CENPF (UniProt P49454)
inactive: [1] -0.084 | filanesib 0.179 | zotarolimus 0.01 | idasanutlin 0.13 | alisertib -0.11 | [2] -0.008 | gefitinib -0.003 | [3] -0.082 | lapatinib 0.086 | pictilisib 0.042

CDK13 (UniProt Q14004)
inactive: [1] -0.323 | filanesib 0.169 | zotarolimus 0.029 | idasanutlin 0.215 | alisertib -0.141 | [2] -0.197 | gefitinib 0.001 | [3] 0.037 | lapatinib 0.054 | pictilisib -0.048

CFAP20 (UniProt Q9Y6A4)
inactive: [1] -0.042 | filanesib 0.172 | zotarolimus -0.01 | idasanutlin 0.056 | alisertib -0.062 | [2] -0.134 | gefitinib -0.014 | [3] 0.003 | lapatinib 0.036 | pictilisib -0.095

CERS5 (UniProt Q8N5B7)
inactive: [1] -0.034 | filanesib -0.265 | zotarolimus -0.055 | idasanutlin 0.369 | alisertib -0.122 | [2] -0.046 | gefitinib 0.032 | [3] 0.03 | lapatinib -0.014 | pictilisib 0.081

CFL2 (UniProt Q9Y281)
inactive: [1] -0.105 | filanesib -0.022 | zotarolimus 0.044 | idasanutlin -0.028 | alisertib 0.006 | [2] 0.109 | gefitinib -0.011 | [3] 0.042 | lapatinib -0.019 | pictilisib -0.053

CERS2 (UniProt Q96G23)
active: pictilisib -0.262
inactive: [1] -0.045 | filanesib -0.117 | zotarolimus -0.062 | idasanutlin -0.047 | alisertib -0.129 | [2] -0.107 | gefitinib -0.095 | [3] -0.005 | lapatinib -0.03

CDC42EP1 (UniProt Q00587)
active: [2] -0.492
inactive: [1] -0.139 | filanesib -0.07 | zotarolimus 0.014 | idasanutlin 0 | alisertib 0 | gefitinib 0.087 | [3] -0.057 | lapatinib -0.015 | pictilisib -0.143

CDK12 (UniProt Q9NYV4)
inactive: [1] -0.019 | filanesib 0.463 | zotarolimus -0.072 | idasanutlin 0.303 | alisertib 0.062 | [2] -0.226 | gefitinib 0.005 | [3] -0.03 | lapatinib 0.134 | pictilisib -0.018

CHKB (UniProt Q9Y259)
inactive: [1] 0.129 | filanesib 0.116 | zotarolimus -0.04 | idasanutlin 0.037 | alisertib -0.072 | [2] 0.022 | gefitinib -0.03 | [3] 0.066 | lapatinib -0.007 | pictilisib 0.082

CFH (UniProt P08603)
inactive: [1] -0.039 | filanesib 0.052 | zotarolimus -0.022 | idasanutlin 0.111 | alisertib -0.145 | [2] 0.025 | gefitinib 0.301 | [3] -0.073 | lapatinib 0.038 | pictilisib 0.044

CDCP1 (UniProt Q9H5V8)
inactive: [1] -0.01 | filanesib 0.024 | zotarolimus -0.027 | idasanutlin -0.005 | alisertib -0.032 | [2] 0.076 | gefitinib 0.03 | [3] 0.06 | lapatinib -0.035 | pictilisib 0.084

CDK5 (UniProt Q00535)
inactive: [1] 0.004 | filanesib 0.024 | zotarolimus -0.003 | idasanutlin -0.099 | alisertib -0.046 | [2] 0.054 | gefitinib 0.002 | [3] 0 | lapatinib -0.033 | pictilisib -0.011

CHEK2 isoform 9 (UniProt O96017)
inactive: [1] -0.037 | filanesib -0.06 | zotarolimus 0.07 | idasanutlin -0.066 | alisertib -0.019 | [2] 0.042 | gefitinib 0.021 | [3] 0.04 | lapatinib -0.044 | pictilisib -0.015

CEPT1 (UniProt Q9Y6K0)
inactive: [1] 0.029 | filanesib -0.277 | zotarolimus -0.095 | idasanutlin -0.142 | alisertib 0.009 | [2] 0.022 | gefitinib -0.025 | [3] 0.036 | lapatinib 0.095 | pictilisib 0.011

CHMP4B (UniProt Q9H444)
inactive: [1] -0.101 | filanesib -0.106 | zotarolimus -0.015 | idasanutlin 0.034 | alisertib -0.036 | [2] 0.044 | gefitinib -0.005 | [3] 0.08 | lapatinib -0.09 | pictilisib -0.094

CEP120 (UniProt Q8N960)
inactive: [1] 0.132 | filanesib 0.312 | zotarolimus -0.076 | idasanutlin -0.243 | alisertib -0.369 | [2] 0.264 | [3] 0.25 | lapatinib 0.011

CHD6 (UniProt Q8TD26)
inactive: [1] -0.666 | filanesib 0.149 | zotarolimus -0.078 | idasanutlin -0.641 | alisertib 0.196 | [2] -0.011 | gefitinib 0.095 | [3] 0.2 | lapatinib 0.071 | pictilisib -0.232

CDCA5 (UniProt Q96FF9)
inactive: [1] -0.196 | filanesib 0.068 | zotarolimus 0.051 | idasanutlin 0.117 | alisertib -0.035 | [2] 0.07 | gefitinib -0.009 | [3] 0.066 | lapatinib -0.045 | pictilisib 0.073

CELF2 isoform 3 (UniProt O95319)
inactive: [1] 0.115 | filanesib 0.052 | zotarolimus -0.035 | idasanutlin -0.044 | alisertib -0.122 | [2] 0.1 | gefitinib -0.027 | [3] -0.006 | lapatinib 0.032 | pictilisib 0.051

CHMP5 (UniProt Q9NZZ3)
inactive: [1] -0.001 | filanesib -0.031 | zotarolimus -0.033 | idasanutlin 0.001 | alisertib -0.048 | [2] -0.007 | gefitinib 0.013 | [3] 0.046 | lapatinib 0.026 | pictilisib 0.006

CDC42BPA isoform 6 (UniProt Q5VT25)
inactive: [1] -0.005 | filanesib 0.009 | zotarolimus 0.081 | idasanutlin 0.004 | alisertib -0.04 | gefitinib -0.096 | [3] -0.027 | lapatinib 0.106 | pictilisib 0.118
active: [2] -1.1

Reprinted at random: two entries already listed
CHMP5 (UniProt Q9NZZ3)
inactive: [1] -0.001 | filanesib -0.031 | zotarolimus -0.033 | idasanutlin 0.001 | alisertib -0.048 | [2] -0.007 | gefitinib 0.013 | [3] 0.046 | lapatinib 0.026 | pictilisib 0.006

CDC42BPA isoform 6 (UniProt Q5VT25)
inactive: [1] -0.005 | filanesib 0.009 | zotarolimus 0.081 | idasanutlin 0.004 | alisertib -0.04 | gefitinib -0.096 | [3] -0.027 | lapatinib 0.106 | pictilisib 0.118
active: [2] -1.1

Following part

CEP152 (UniProt O94986)
inactive: [1] 0.402 | filanesib 0.334 | alisertib 0.021 | [2] 0.196 | gefitinib 0 | [3] -0.028 | lapatinib -0.103 | pictilisib 0.036

CDC73 (UniProt Q6P1J9)
inactive: [1] 0.127 | filanesib 0.233 | zotarolimus 0.235 | idasanutlin 0.074 | alisertib 0.028 | [2] -0.023 | gefitinib 0.069 | [3] -0.137 | lapatinib 0.035 | pictilisib 0.339

CHCHD2 (UniProt Q9Y6H1)
active: idasanutlin -0.457
inactive: [1] 0.101 | filanesib 0.026 | zotarolimus -0.024 | alisertib 0.053 | [2] -0.002 | gefitinib -0.028 | [3] -0.155 | lapatinib -0.024 | pictilisib 0.031
